From patent US20230087118A1, “IMIDAZO[1,2-a][sequence] DERIVATIVES AND THEIR USE IN THE TREATMENT OF DISEASE” (priority 2019, published 2023)
The match of structure and compound is tentative.

Amino acid sequences for entries named in this document (tags omitted).
UniProt Q9NWZ3, whole entry: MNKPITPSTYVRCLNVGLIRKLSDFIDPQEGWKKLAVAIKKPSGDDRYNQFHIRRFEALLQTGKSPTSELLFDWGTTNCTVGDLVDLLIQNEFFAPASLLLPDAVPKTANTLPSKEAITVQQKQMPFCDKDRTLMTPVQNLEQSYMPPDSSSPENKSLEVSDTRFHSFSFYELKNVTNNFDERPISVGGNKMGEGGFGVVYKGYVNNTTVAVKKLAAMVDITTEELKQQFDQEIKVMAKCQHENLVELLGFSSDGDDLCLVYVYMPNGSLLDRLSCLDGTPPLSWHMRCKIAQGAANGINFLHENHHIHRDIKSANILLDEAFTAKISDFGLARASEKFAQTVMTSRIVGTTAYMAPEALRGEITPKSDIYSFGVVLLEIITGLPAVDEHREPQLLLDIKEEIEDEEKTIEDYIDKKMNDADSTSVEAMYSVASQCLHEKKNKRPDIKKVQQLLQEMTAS

Molecular target: IRAK4 (Homo sapiens, UniProt Q9NWZ3)
Settings: read-out: IRAK4 Biochemical Assay (1 mM ATP, 2 h) IC50, 100 pM IRAK4, tested form: TFA

## CC(C)Oc1cc2nc(C34COC(C)(C3)C4)cn2cc1C(=O)Nc1cc(F)cn(C)c1=O
  IC50: 5.2 nM
